This is an account of results in US12121507B2, “Water-soluble curcumin liquid and preparation method and application thereof” (HENAN ZHONGDA HENGYUAN BIOTECHNOLOGY STOCK CO., LTD., priority 2021, dated 2024).

Molecules are shown by their SMILES.

A short description of the data set: Solubility in water (dispersed in water, photo). The data set is classed as physicochemical. The source says:
The curcumin content was 10.2%, and the D90 particle size was 278 nm. […] The curcumin content was 5.2%, and the D90 particle size was 262 nm. FIG. 2 is a photo of solubility of the curcumin raw material in water. It can be seen from FIG. 2 that curcumin is insoluble in water.

As for `COc1cc(/C=C/C(=O)CC(=O)/C=C/c2ccc(O)c(OC)c2)ccc1O` [curcumin raw material, curcumin], the water solubility result is listed as “insoluble”.
